Assay results published in patent US11357742B2, “Methods for treating cancer” (X4 Pharmaceuticals, Inc., priority 2015, dated 2022).

Tested on: 786-0 and A498 RCC xenografts
Assay: Murine models with human RCC cell line xenografts (tumor size, IHC, IF, flow cytometry)
Type: in vivo, mice
Conditions: 786-0 and A498 xenografts
Method: With each of the human cell lines, 1×10^7 tumor cells were implanted subcutaneously in the flanks of 36 nude/beige mice and tumors allowed to grow to roughly 7 mm in diameter. […] Therefore, on day 7, the mice were sacrificed and the tumors were measured and immediately excised and divided into three parts. One part of each tumor was paraffin-embedded for dual color immunofluorescence. Another part was mechanically disaggregated and treated with collagenase/DNAse to generate a single cell suspension for flow cytometry. The third part was frozen for future pharmacokinetic analysis. Microscope slides were made from the paraffin-embedded tumor tissue, which were stained with antibodies against CD11b, Gr-1, and FAP. The number of infiltrating CD11b+/Gr-1+ MDSC and FAP+ fibroblasts present in the tumor tissue was then determined by immunofluorescence (IF) as previously described (1).
The disaggregated tumor specimens were analyzed for CD11b+/Gr-1+ MDSC and FAP+ fibroblasts by flow cytometry. The fraction of both populations expressing CXCR4 were also determined. […] One part was disaggregated into single cell suspensions and analyzed by flow cytometry as above for MDSC. […] Finally, a bone marrow (BM) sample was generated by extruding marrow from an excised femur with a syringe filled with saline and analyzed by flow cytometry for MDSC.

In the case of `CNC(=O)c1ccccc1Sc1ccc2c(/C=C/c3ccccn3)n[nH]c2c1` [axitinib, N-methyl-2-[3-((E)-2-pyridin-2-yl-vinyl)-1H-indazol-6-ylsulfanyl]-benzamide], the “Ki-67 positive tumor cells (IHC staining)” value is reported as “increase”.
